The record followed here is US20230399361A1 (UNIVERSITY OF NOTRE DAME DU LAC, priority 2022, published 2023).

[ ]: non-standard residue; d: D form. aIle = CC[C@@H](C)[C@H](N)C(=O)O

This data set in a line: general procedure: Fmoc solid-phase peptide synthesis; Fmoc-capped polystyrene Rink amide MBHA resin (100-200 mesh); HCTU/NMM. The settings on record: whole synthesis, scale of the general procedure 0.05-0.15 mmol.

Turning to Ac-VQI[aIle]NK-NH2, the isolated yield is 75%.

In the case of Ac-Val-Gln-Ile-Val-Tyr-aLys-NH2, the isolated yield worked out at 99%.

Ac-Val-Gln-Ile-Val-aTyr-Lys-NH2 showed an isolated yield of 38%.

As to Ac-Val-Gln-Ile-aVal-Tyr-Lys-NH2, the isolated yield is 88%.

The substance Ac-Val-Gln-Ile-aVal-Tyr-aLys-NH2 came in with an isolated yield of 42%.

In the case of Ac-Val-Gln-aIle-Val-aTyr-Lys-NH2, the isolated yield turned out to be 44%.

As for Ac-aVal-Gln-Ile-Ile-Asn-Lys-NH2, the isolated yield worked out at 81%.

Consider Ac-aVal-Gln-Ile-Val-aTyr-Lys-NH2, for which the isolated yield was 58%.

Ac-aVal-Gln-aIle-Val-Tyr-Lys-NH2 came in with an isolated yield of 52%.

In turn, Ac-aVal-Gln-aIle-Val-aTyr-Lys-NH2 gave an isolated yield of 28%.
